The record followed here is PMC7819943, “Rice protein-binding microarrays: a tool to detect cis-acting elements near promoter regions in rice”.

Amino acid sequences for entries named in this document (tags omitted).
UniProt Q0JBA9, entry or part of it: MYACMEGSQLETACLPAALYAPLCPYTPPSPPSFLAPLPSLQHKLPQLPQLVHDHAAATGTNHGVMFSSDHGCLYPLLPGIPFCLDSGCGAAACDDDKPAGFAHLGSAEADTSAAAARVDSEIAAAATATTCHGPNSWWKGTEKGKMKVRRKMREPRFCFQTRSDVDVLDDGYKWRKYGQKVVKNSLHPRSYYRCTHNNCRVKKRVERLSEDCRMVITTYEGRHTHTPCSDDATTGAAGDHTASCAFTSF

The list shows a part of the results.

The target of this assay is OsWRKY34 (Oryza sativa, UniProt Q0JBA9 1-250). In words: protein-binding microarray (RPBM); PBS, 2% BSA, 51.3 ng/ul salmon testes DNA, 50 uM zinc acetate, 200 nM TF, 25 C, 1 h; high values mean tight binding. To be noted: protein: recombinant; tags: N-terminal polyhistidine and DsRed monomer fusion (pET32a); label: CyDye5-dUTP incorporated in the synthesized complementary strand; 3' TTTTT single-stranded linker to array surface; dsDNA, one strand shown. In short, it runs like this: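 Ni–NTA purification followed expression in E. coli BL21-CodonPlus of transcription factors fused N-terminally to a polyhistidine tag and DsRed. At 200 nM in PBS with 2% BSA, salmon testes DNA and 50 µM zinc acetate, the protein was incubated for 1 h at 25 °C with a custom Agilent array that had been primer-extended with Cy5-dUTP and blocked with 2% BSA. After washing, the array was read on an Axon 4000B scanner. The binding signal is per-feature fluorescence intensity in arbitrary units.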
For the sequence “ATTTGCTCTGTAGTATATACATTATTTTAGCTATATTTGACGGAGTCACCTAGTGCAG”, the binding signal was 10500 fluorescence intensity (a.u.). As to “CATTTCTCCTCATCCCACACTCCTCATCTTGTGCTCTCAACGGAGTCACCTAGTGCAG”, the binding signal was 9420 ± 112 fluorescence intensity (a.u.).

“TTTTATATGTTTTTTGCCAGACAGTTTAGTCAGCTCCCAGCGGAGTCACCTAGTGCAG”: the binding signal was 8090 fluorescence intensity (a.u.).

Turning to “CACATGTACTACTACTATCTGTTTGCCTCTTCCCACATCCCGGAGTCACCTAGTGCAG”, the binding signal was 8410 fluorescence intensity (a.u.). Consider “TCATCAATGTCGACTTCTGTTTTGAAGTCGCTTTTTCATCCGGAGTCACCTAGTGCAG”, for which the binding signal is 9100 fluorescence intensity (a.u.). “CCCTACTGCCCTTGACCCCTCCCGCTCCCCTCAGATCTCCCGGAGTCACCTAGTGCAG”: the binding signal is 14800 fluorescence intensity (a.u.). Next, “GTAATGTTGTTTATTCATCCTGGTTTTCTCTTTTCTAGTGCGGAGTCACCTAGTGCAG”: 8840 fluorescence intensity (a.u.). Consider “GGTGGGCAACGTTTAGGTTCGACTTTCTTTGTGAGATGTGCGGAGTCACCTAGTGCAG”, for which the binding signal is 9250 fluorescence intensity (a.u.).

As to “AGAAAGAGGGGAGGTGGGGTTGAAGACTAAAGTTGTAACTCGGAGTCACCTAGTGCAG”, the binding signal is 8290 fluorescence intensity (a.u.). As for “ATCTCATAACTTACCACCAGCATACTGTCCAAAATACACACGGAGTCACCTAGTGCAG”, the binding signal is 9040 fluorescence intensity (a.u.). As for “TCGATTAGGCTCGCTGGTGTTTTCTCTCACCTCTACGTCACGGAGTCACCTAGTGCAG”, the binding signal was 11600 fluorescence intensity (a.u.).

With “GCCTTACACTGTCCTTGATCTTGTGTGACCCATCTATATACGGAGTCACCTAGTGCAG”, the binding signal is 11400 fluorescence intensity (a.u.). As to “CACCGCAGTCAACGACGCCGGCCGTCGCTGTCTTTCTCGCCGGAGTCACCTAGTGCAG”, the binding signal was 8330 fluorescence intensity (a.u.). As to “GTTCCTCTCTGATGCGTGGGTCCTTTGCCTTTTGTTGCTCCGGAGTCACCTAGTGCAG”, the binding signal is 8590 fluorescence intensity (a.u.). Regarding “GCCACGTGGGTGATCGTGTCTGCCTCAAGTCTCTAAGTCACGGAGTCACCTAGTGCAG”, the binding signal is 9000 fluorescence intensity (a.u.).

Consider “CCGACCCGACCCGACCACCCACCGGCGAGGCCCACTCCGTCGGAGTCACCTAGTGCAG”, for which the binding signal was 8620 fluorescence intensity (a.u.).

In the case of “AGGGTGGGGCGGGGATGCCTCCTGGCATCGGGGACGAGAGCGGAGTCACCTAGTGCAG”, the binding signal is 10200 fluorescence intensity (a.u.). With “TTATCTTGCATTCTTGTTCTTGGTTTGCATCTCTTCTTGCCGGAGTCACCTAGTGCAG”, the binding signal is 12800 fluorescence intensity (a.u.).

As for “CAGATAACGGCCGCGACCTCACCCTTCGTCACCCCTAACCCGGAGTCACCTAGTGCAG”, the binding signal is 8110 fluorescence intensity (a.u.). Next, “TCGCTCGCCCGCCGTGAAAAGTGCCCTTTTTTCCTTTCAACGGAGTCACCTAGTGCAG”: 11000 fluorescence intensity (a.u.); “GTTTGTGGTGTGCATTGCCGATTTGCCATTGCGTTGGGTTCGGAGTCACCTAGTGCAG”: 10100 fluorescence intensity (a.u.).

As to “GGCAAAGATGATGTTACTATGATCAATGAGGTCTACTCTACGGAGTCACCTAGTGCAG”, the binding signal is 8840 fluorescence intensity (a.u.). As to “GACTTACCAAATTTTACGTATCTTTTCGGTCTTTACATTTCGGAGTCACCTAGTGCAG”, the binding signal was 10600 fluorescence intensity (a.u.).
